# Some peptides are written in HELM: one residue between dots, names in brackets for other building blocks, links after the first $.
# Test: general procedure: Fmoc solid-phase peptide synthesis; Wang resin preloaded with Fmoc-Phe (0.5 g, Phe loading 0.4–0.8 mmol/g); TBTU/HOBt/DIPEA; HATU/DIPEA for cyclization
# Details: cyclisation step, DAD 210 nm
substance,measurement,value
"PEPTIDE1{F.G.[bAla].[dW]}$PEPTIDE1,PEPTIDE1,1:R1-4:R2$$$V2.0",final HPLC purity,>95%

# Source: publication PMC7066533 (Frontiers in Pharmacology, 2020)
